The values that follow come from the RNAGym collection of RNA variant scans (doi:10.1126/science.aae0568).

Variants at the floor of the assay are shown more often than the library holds them.

The labels stand for the following.
B1: tRNA (parent)
chain: GUUCCGUUGGCGUAAUGGUAACGCGUCUCCCUCCUAAGGAGAAGACUGCGGGUUCGAGUCCCGUACGGAACG

The variants in this data set derive from B1. Kind of data set: yeast fitness relative to wild type (ratio to wild type); higher = fitter; tRNA-Arg(CCU), competitive growth, 37 C, YPD. In a few lines: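 Changes in genotype frequencies gave Darwinian fitness relative to wild type. Frequencies were read by 100-nucleotide paired-end sequencing of gene amplicons before and after pooled Saccharomyces cerevisiae strains, carrying tRNA-Arg(CCU) gene variants at the native locus, were competed in YPD at 37°C for 24 hours in six replicates. A genotype was kept only with ≥ 100 starting reads, and estimates < 0.5 were set to 0.5.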
For GUUCCGUUGGCGUAAUGAUAACGCGUCUCCCUCCUAAGGAGAUGACUGCGGGUUCGAGUCCCGUACGGAACG, the yeast fitness was 0.637.

In the case of GCUCCGUUGGCGUAAUGGUAACGCGUCUCCCUCCUAAGGAGUAGACUGCGGGUUCGAGUCCCGUACGGAACG, the yeast fitness was 0.937.

GUUCCGUUGGCGUAAUGGUAGCGCGUCUGCCUCCUAAGGAGAAGACUGCGGGUUCGACUCCCGUACGGACCG: the yeast fitness was at most 0.5.

On to GUUCCGUUCGCGUAAAGGUAACGCGUCUCCCUCCUAAGGAGAAGACUGUGGGUUCGAGUCCCGUACGAAACG, for which the yeast fitness is at most 0.5.

Turning to GUUCCGUUGGUGUAAUGGUAACGCGUCUCCCUCCUAAGGAAAAGACUGCGGGUUCGAGUCGAGUACGGAACG, the yeast fitness was at most 0.5.

In the case of GAUCCGUUGGCGUAAUGGUAACGCGUCUCCCUCCUAAGGAGAGGACUGCGGGUUCGAGUACCGUACGGAACG, the yeast fitness was at most 0.5.

On to GCUCCGUUGGCGUAAUGGUAACGCGUCUCCCUCCUAAGGAGAAGACUGCGGGUUCGAGUAGCGUCCGGAACG, for which the yeast fitness was at most 0.5.

In the case of GUUCCGUUGGCGUAAUGGUAACGCGUCUCCCUCCUAAGGAAAAGACUGCGGGUUGGAGUCCCGUAUGGAACG, the yeast fitness is at most 0.5.

As to GUUCCGUUGGCGUAGUGGUAGCGCGUUUCCCUCCUAAGGAGAAGACCGCGGGUUCCGGUCCCGUAGGGAACG, the yeast fitness was at most 0.5.

For the variant GUUCCGUUGGCGUAAUGGUAACGCGUCUCCCUCCUAACGAGAAGACUGCGGGUUCAAGUCCCGUAGGGAACG, the yeast fitness is at most 0.5.

Regarding GUUCCGUUGGCGUAAUGGUCACGCGUCUCGCUCCUAAGGAGAAGACUGCGGGUUCGAGUCCAGUACGGAACG, the yeast fitness was at most 0.5.

Turning to GUUCCGUUGGCGUAAUGCUAACGCGUCUCCUUCCUAAGGAGAUGACUGCGGGUUCGAGCCCCGUACGGAACG, the yeast fitness is at most 0.5.

As to GGUCCGUUGGCGUAAUGGUAACGGGUCUGCGUCCUAAGGAGAAGACUGCGGGUUCGAGUCCCGUACGGUACG, the yeast fitness was at most 0.5.

For GUUCUGUUGGCGUAGUGGUAACGCGUCUCCCUCCUAAGGAGAAGACUACGCGUUCGAGUCCCGUACGGAACG, the yeast fitness is at most 0.5.

Take GUUCCGUUGGCGUAAUGGUAACGCGUCUACCUUCUAAGGAGAAGACUGCGGGUUCGAGUCUCGUACGGUACG: the yeast fitness is at most 0.5.

GUCCCGUUGGCGUAAUGGUAACGCGUCUCCAUCCUAAGGAGGGGACUGCGGGUUCGAGUCCCGUACGCAACG: the yeast fitness is at most 0.5.

For the variant GUUCCGUUGGCAUAAUGGUAACGCGUCUACCUCCUAGGGAGAAGACUGCGGGUUCGAGUCCCGUACGGAACG, the yeast fitness was at most 0.5.

Turning to GUUCCGUUGGCGUAAUGGAAAGCCGUCUCGCUCAUAAGGAGAAGACUGCGGGUUCGAGUCCCGUACGGAACG, the yeast fitness came out at 0.519.

Regarding GGUCCAUUGGCGUAAUGGUAACGCGUCUCCCUCCUAAGGAGAACACUGCGGGUUCGAGUCCCGUCCGGAACG, the yeast fitness is at most 0.5.

Consider GUUCCGUGGGCGUAAUGGUAACGCGACUCCCUCCUAAGGAGAAGACUGCGGGUUCGAAUCCCGUACGGAACG, for which the yeast fitness was at most 0.5.

With GUUCCGUUGGCGUAAUGGUAUCGCGUCUCCCUCCUAUGGAGAAGACUGCGGGUUCGAGUCCCGUACGGAACG, the yeast fitness worked out at 0.672.

With GUUCCGUUGGCGUAAUGGUAACGCGUCUCGCUCCUAAGGAGAAGACUGGGGGUUCGAGUCCCGUACGGUACG, the yeast fitness is at most 0.5.

GUUCGGUUGGCGUAAUGGUAACGCGUCUCCCUCCUUAGGAGAAGAGUGCGGGUUCGAGUCCAGUACGGCACG: the yeast fitness was at most 0.5.

GUCCCGUUGGCGUAAUGGUAGCGCGUCUCCCUCGUAAGGAGAAGACUGCGGGUUCGAGUCCCGUACGGAACG: the yeast fitness is at most 0.5.

GUUCCGUUGGCGUAAUGGUAACGCGUCUCCCUUCUAAGGAGCAGACUGCGGGUUCGAGUCACGUACGUAACG: the yeast fitness is at most 0.5.

In the case of GUUCCGUUGGCGUGAUGGUAAUGCGUCUACCUCCUAAGGAGAAGACUGCGGGUUCGAGUCCCGUACGGAACG, the yeast fitness is at most 0.5.

Consider GUUCCAUUGGCGUAAUGGUAACGCGUCUCCCUCCUAAGGAGAAGACUGCGGGUCCGAGUGCCGUACGGAACG, for which the yeast fitness is at most 0.5.

Take GUUCCGUUGGCGUCAUGGUAACGCGUCUCCCUCCUAAGGAGUAGACUGCGGGUUGGAGACCCGUACGGAACG: the yeast fitness is 0.612.

GUUCCGUAGGCGUAAGGGUAACGCGUCUCUCUGCUACGGAGAGGACUGCGGGUUCGAGUCCCGUACGGAACG: the yeast fitness is at most 0.5.

GUUCCGUUGGCGUAAUGGUAACACGUCUCCCUCCUAAGGAGAAGACUGCGGGUUCGACUCCCGUACGGAACG: the yeast fitness was 0.885.

As for GUUUCGUCGGCGUAAUGGUAACGCGUCUCCCUCCUGAGGCGAACACUGCGGGUUCGAGUCCCGUACGGAACG, the yeast fitness was at most 0.5.

With GUUCCGUUGGCGUAAUGGUAACGCGUCCCCCUCCUAAGGAGAAGACAGCGGGUUCGAGUCCCAUACGGUACG, the yeast fitness is at most 0.5.

In the case of GUUCCGUUGGCGUAAUGGUAUCGCGUCUCCCUCCUAAGGAGAAGACUGGGGGUUCGAGUCCUGUACGGAACG, the yeast fitness was at most 0.5.

Regarding GUUCCGUUGGCGUAAUGCUAGCGCGUCUCCCUCCUAAGGGGAAGAGUGCUGGUUCGAGUCCCGUACGGAACG, the yeast fitness is at most 0.5.

With GUGCCGUUGGCGUGAUGGUAACGCGUCUCCCUCCUAAGGAGAUGACUGCGGGUACGCGUCCCGUACGGAACG, the yeast fitness was at most 0.5.

Consider GAUCCGUUGGCGUCAUGGUAACGCGUCUCCCUCCUAAGGAGAAGACUACGGGUUCGAGUCCCGUACGGAACG, for which the yeast fitness was at most 0.5.

For GUUCAGUUGGCGUAAUGGUAACGCGUCUUCCUCCUAAGGAGAAGACUGCGGGUUCGAGUCCCGUACGGUACG, the yeast fitness was determined as 0.632.
